According to patent US20230212229A1 (priority 2021, published 2023):

Experiment: peptide made by a vendor
Settings: whole synthesis, HPLC, Inertsil ODS-SP column (4.6 mm×250 mm), acetonitrile/water gradient with 0.1% TFA; run 1

**Q.** With IHKNLLIVQDKFPPRRRQRRKKRG as the sequence, how does the “purity (crude or final not stated)” value read?
**A.** The value was 98.03%.

Plain letter strings leave the end groups untold.
